Measurements from paper PMC5714946.
No constants are given. Whether binding was seen depends on the method and setting. Binding seen in cells or lysates may run through a third protein. Some binding calls cover weakened binding; strength is not graded here.

Sequences of proteins named here, by UniProt entry; tags and fusion partners are left off.
UniProt Q96D31: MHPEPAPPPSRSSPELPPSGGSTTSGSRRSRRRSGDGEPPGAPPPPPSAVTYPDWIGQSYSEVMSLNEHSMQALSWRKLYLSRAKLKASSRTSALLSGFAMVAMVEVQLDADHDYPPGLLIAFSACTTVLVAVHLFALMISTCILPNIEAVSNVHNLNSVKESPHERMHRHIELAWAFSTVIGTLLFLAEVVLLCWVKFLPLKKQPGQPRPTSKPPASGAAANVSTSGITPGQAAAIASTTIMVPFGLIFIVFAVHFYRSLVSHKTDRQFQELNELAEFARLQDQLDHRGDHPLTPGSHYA

Biological target: T1, Amnionless (human (endogenous in PTECs)) (UniProt Q9BXJ7)
T1 sequence: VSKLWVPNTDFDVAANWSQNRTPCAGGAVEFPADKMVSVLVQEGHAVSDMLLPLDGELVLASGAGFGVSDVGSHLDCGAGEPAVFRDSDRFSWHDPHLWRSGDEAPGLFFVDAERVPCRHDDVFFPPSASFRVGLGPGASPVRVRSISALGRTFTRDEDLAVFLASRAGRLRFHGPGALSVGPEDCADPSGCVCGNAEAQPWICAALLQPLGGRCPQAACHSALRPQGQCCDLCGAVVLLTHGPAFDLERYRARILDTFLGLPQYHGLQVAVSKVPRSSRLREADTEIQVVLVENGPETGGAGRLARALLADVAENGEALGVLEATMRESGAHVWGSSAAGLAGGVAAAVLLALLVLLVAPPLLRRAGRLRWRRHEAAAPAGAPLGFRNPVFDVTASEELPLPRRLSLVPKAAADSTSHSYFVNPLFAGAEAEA
Assay: co-IP; endogenously expressed STIM1, ORAI1 and AMN in PTECs, with/without thapsigargin (TG) treatment (replete or depleted Ca2+ stores); Pierce Classic IP Kit; rabbit anti-STIM1, rabbit anti-Orai1 and mouse anti-AMN antibodies

ORAI1 (from UniProt Q96D31 1-301)
binding: binds
